Data: patent US20060052582A1, “Identification of inhibitors of mitosis” (priority 2002, published 2006)
At least one structure is not confirmed: it was looked up by name or label, or the drawing left a doubt.

Test system: Nek6
Experiment: Activity of endogenous Nek6 immunoprecipitated from H4-II-E-C3 hepatoma cells
Assay type: cell-based, rat
Conditions: insulin-stimulated H4 cells; increasing inhibitor concentrations
Procedure: Endogenous Nek6 polypeptide was immunoprecipitated from lysates of rat H4-II-E-C3 hepatoma cells following prior treatment for varying times (min) with 100 nM insulin (FIG. 12B), or insulin plus increasing concentrations of either wortmannin (FIG. 12C) or rapamycin (FIG. 12D) for 30 minutes. Nek6 kinase activity was measured using GST p70S6K ΔCT104 (Thr252Ala) as substrate (see, text for details). The activity of endogenous p70S6K αI/II, immunoprecipitated from the same lysates, was measured using a synthetic peptide substrate. Kinase activities are expressed as either fold increase in baseline activity (as in FIG. 12B; open circles show Nek6 activity; filled squares show p70S6K activity) or as histograms depicting the percent activity remaining for Nek6 (filled bars) or p70S6K (open bars) (as in FIGS. 12C and 12D).
Immunoprecipitates (IP) of recombinant Nek6 (using anti-FLAG or anti-myc antibodies) or endogenous Nek6 were washed three times in the extraction buffer containing 0.5 M LiCl, and twice in kinase buffer (50 mM MOPS pH 7.4, 10 mM MgCl2, 2 mM EGTA, 20 mM β-glycerophosphate). […] Kinase mixtures were resolved by SDS-PAGE, transferred to PVDF membrane, and Nek6 phosphotransferase activity determined by excising Coomassie stained bands corresponding to the substrate and measuring radioactive content by Cerenkov scintillation counting. […]

SMILES | effect on activity of Nek6
CO[C@H]1C[C@@H]2CC[C@@H](C)[C@@](O)(O2)C(=O)C(=O)N2CCCC[C@H]2C(=O)O[C@H]([C@H](C)C[C@@H]2CC[C@@H](O)[C@H](OC)C2)CC(=O)[C@H](C)/C=C(\C)[C@@H](O)[C@@H](OC)C(=O)[C@H](C)C[C@H](C)/C=C/C=C/C=C/1C [rapamycin] | did not alter significantly
COC[C@H]1OC(=O)c2coc3c2[C@@]1(C)C1=C(C3=O)[C@@H]2CCC(=O)[C@@]2(C)C[C@H]1OC(C)=O [wortmannin] | did not alter significantly
